# Source: PubChem BioAssay AID2685 (National Center for Advancing Translational Sciences (NCATS), 2010)
# Out of some 320,000 compounds screened, about 2,100 (0.66%) were called active. The shares of active, inactive and inconclusive entries below differ from those in the screen. The call rests on the fitted dose curve; in most records, active means well fitted inhibition curve with a large enough effect in the signal ratio, with a control signal flat (not every such curve was filed as active); inconclusive means small, poorly fitted or top-dose-only effect, or effect the other way, or a change in a side signal; inactive means flat fitted curve, though single readings scatter; the % refers to the signal ratio. Where the call is inconclusive, the potency comes from a doubtful curve fit.
# Assay: qHTS Assay for Lipid Storage Modulators in Drosophila S3 Cells
# Details: BODIPY lipid droplet fluorescence, 18-24 h, cells fed with added oleic acid; lipid storage change, negative = inhibition: at 46.1 µM (top of the series) unless noted
# Procedure, shortened: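 Laser-scanning cytometry quantifies lipid droplet accumulation (500–530 nm total intensity; droplet/cell object ratio) in oleic acid-fed (400 uM added) Drosophila S3 cells treated with a concentration series. 20 uM Triacsin C defined 100% inhibition.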
# On the % scale 0 is the no-effect control and ±100 the full control effect; potency means the concentration at half of the fitted maximal effect.
SMILES,"lipid storage change, negative = inhibition",Potency
Cc1ccc(N2C(=O)C3C(C2=O)N2C(c4cccs4)C4C(=O)N(c5ccc(C)cc5)C(=O)C4N2C3c2cccs2)cc1 (stereo not drawn),inconclusive: 16.2%,–
Cc1cc(S(=O)(=O)NCC(=O)O)ccc1F,inconclusive: -18.4%,–
O=C(Cc1cccs1)N(Cc1ccco1)C1(C(=O)NC2CCCC2)CCCCC1,–,active: 3.66 µM
Cc1cc(C(C)c2ccccc2)c(O)c(CN2CCOCC2)c1C (stereo not drawn),–,"inconclusive: 4.61 µM [falling, full curve, poor fit]"
O=C(Nc1ccc(S(=O)(=O)N2CCCCC2)cc1)C1CC1,inactive,–
O=C(CNC(=O)c1cccs1)NCCc1ccco1,inconclusive: 23.8%,–
COc1cccc(-n2c(SC)nnc2-c2c[nH]c3ccccc23)c1,inconclusive: 19% [at 9.22 µM],–
Cc1nn(Cc2c(Cl)cccc2Cl)c(Cl)c1/C=C/C(=O)OCC(=O)NCC(F)(F)F,–,"inconclusive: 16.4 µM [falling, single point]"
Cc1cc(C)nc(N(C#N)Cc2ccc(Cl)cc2)n1,inconclusive: 29.6%,–
COc1ccc(CCNS(=O)(=O)c2ccccc2)cc1OC,inconclusive: 43.4%,–
CCCCc1nnc(SCC(=O)NC2CCCCC2)n1C,inconclusive: -15.3%,–
COc1ccc([C@H]2CC(=O)C=C(c3cc(C(F)(F)F)cc(C(F)(F)F)c3)C2)cc1,inconclusive: -68.3%,–
Cc1ccc(Cl)cc1N(CC(=O)NC1CCCC1)C(=O)c1csnn1,–,active: 0.82 µM
CC(C(=O)N1CCc2ccccc21)N1CCN(Cc2ccccc2)CC1 (stereo not drawn),–,"inconclusive: 0.58 µM [falling, single point]"
N#C/C=C1\n2c(nc3ccccc32)OC12CCCCC2,inconclusive: -1.27%,–
CCOc1ccccc1NC(=O)C1CCCN1C(=O)OCc1ccccc1 (stereo not drawn),inconclusive: 76.8%,–
Fc1ccc(N2CCN(Cc3cnc(N4CCOCC4)s3)CC2)cc1,inconclusive: 5.51%,–
O=C(N1CCOCC1)N1CCOCC1,inconclusive: -6.51%,–
Cc1ccc(C(=O)NCC(c2cccs2)N(C)C)cc1S(=O)(=O)N1CCOCC1 (stereo not drawn),inconclusive: -23.4%,–
COc1cccc(C(C(=O)NC2CCCC2)N(C(=O)c2ccco2)c2ccccc2F)c1OC (stereo not drawn),inconclusive: 136%,–
O=C(CNC(=O)COc1ccccc1)NCc1cccnc1,inconclusive: 3.82%,–
COC(=O)c1cc(S(=O)(=O)NC2CCC(C)CC2)cn1C (stereo not drawn),inconclusive: 66.5%,–
CCOc1ccc(/C=C/C(=O)N(CC)CC(=O)Nc2ccc3c(c2)OCCO3)cc1OCC,inconclusive: 37.2%,–
O=C(Nc1ccc(C(=O)N2CCCCC2)cc1)c1ccc([N+](=O)[O-])cc1,–,"inconclusive: 29.1 µM [activator, single point]"
CCc1ccc(C(=O)C[n+]2cccc3cc(OC)ccc32)cc1,inconclusive: -18.4%,–
CCN(CC(=O)NCc1ccc(Cl)cc1)C(=O)/C=C/c1ccc(C#N)cc1,inconclusive: 275%,–

SMILES,"lipid storage change, negative = inhibition",Potency
CCNc1oc(-c2ccccc2F)nc1S(=O)(=O)c1ccccc1,inconclusive: 21.8%,–
O=C(O)C1CC=CCC1C(=O)Nc1cccc(C(=O)N2CCCCC2)c1 (stereo not drawn),inconclusive: 8%,–
Cc1cc(C)c(C)c(S(=O)(=O)N2CCN(C(=O)CNC(=O)c3ccco3)CC2)c1C,–,"inconclusive: 8.2 µM [activator, partial curve, poor fit]"
COc1ccc(CCNC(C)=O)cc1,–,"inconclusive: 0.058 µM [falling, partial curve, poor fit]"
CCC(C)c1ccc(NC(=O)COC(=O)c2nc3nccc(C)n3n2)cc1 (stereo not drawn),inconclusive: -0.828%,–
Cc1ccc2cc(CN(c3ccccc3)S(=O)(=O)c3ccccc3)c(=O)[nH]c2c1,inconclusive: -5.28%,–
O=C(N/N=C/c1cc(Br)c(O)c(Br)c1O)c1ccc2c(c1)OCCO2,–,"inconclusive: 0.206 µM [activator, single point]"
COc1ccc(/C=N/Nc2cc(C)nc(N3CCOCC3)n2)c(OC)c1,inactive,–
O=C(NC1CCCc2ccccc21)c1ccccc1 (stereo not drawn),inactive,–
CS(=O)(=O)N(CC(=O)N1CCOCC1)c1ccccc1,–,"inconclusive: 5.8 µM [activator, full curve]"
CC(CNC(=O)CCc1nnc(CCC2CCCCC2)o1)c1ccccc1 (stereo not drawn),–,"inconclusive: 11.6 µM [falling, partial curve]"
COc1ccc(C(C)NC(=S)NC2CCCCC2)cc1OC (stereo not drawn),inconclusive: 48.8%,–
Cc1cc(C)n2nc(NCc3ccccc3)nc2n1,inconclusive: 152%,–
O=C(Nc1cccc(Cl)c1N1CCOCC1)c1ccc([N+](=O)[O-])o1,inconclusive: -2.33%,–
CCN(CC)c1ccc(/C=N/NC(=O)c2ccco2)cc1,inconclusive: 18.2%,–
NC(=O)C1CCN(C(=O)CCc2ccsc2)CC1,–,"inconclusive: 0.13 µM [activator, full curve, poor fit]"
COc1ccc(-c2c3c(nc4sc5c(=O)[nH]c(C)nc5c24)CCC3)cc1,–,"inconclusive: 4.61 µM [activator, partial curve]"
CC1(C)C(=O)OC(C(=O)c2ccccc2)C(C)(C)C1=O (stereo not drawn),–,"inconclusive: 0.164 µM [activator, full curve, poor fit]"
Cc1cc2c(cc(C(=O)O)n2C)s1,–,"inconclusive: 4.61 µM [falling, full curve, poor fit]"
CCOC(=O)c1[nH]c2ccc(Br)cc2c1NC(=O)CCN1CCCC(C)(C)C1,inconclusive: 4.15%,–
COc1cc(/C=N/n2nnnc2Nc2ccccc2)cc(OC)c1OC,inconclusive: 15.5%,–
Cc1nn(C)cc1C(C(=O)NC1CCCCC1)N(C(=O)Cc1cccs1)c1ccc(F)cc1 (stereo not drawn),inconclusive: -19.8%,–
CC(C)Cn1c(CN2CCN(C)C(CCO)C2)nc2ccccc21 (stereo not drawn),inconclusive: 8.84%,–
CCc1ccccc1NC(=O)CCN1C(=O)c2ccccc2C1=O,–,"inconclusive: 1.46 µM [rising, partial curve, poor fit]"
CC(C)CNC(=O)c1cccc(NC(=O)C(C)Oc2ccccc2)c1 (stereo not drawn),–,"inconclusive: 29.1 µM [falling, single point]"
CCc1nc2ccccc2c(C(=O)OCC(=O)C(C)(C)C)c1C,inconclusive: 34.3%,–

# Of the compounds above, 7 have fluorine.
SMILES,"lipid storage change, negative = inhibition",Potency
Cc1cc(S(=O)(=O)NCC(=O)O)ccc1F,inconclusive: -18.4%,–
Cc1nn(Cc2c(Cl)cccc2Cl)c(Cl)c1/C=C/C(=O)OCC(=O)NCC(F)(F)F,–,"inconclusive: 16.4 µM [falling, single point]"
COc1ccc([C@H]2CC(=O)C=C(c3cc(C(F)(F)F)cc(C(F)(F)F)c3)C2)cc1,inconclusive: -68.3%,–
Fc1ccc(N2CCN(Cc3cnc(N4CCOCC4)s3)CC2)cc1,inconclusive: 5.51%,–
COc1cccc(C(C(=O)NC2CCCC2)N(C(=O)c2ccco2)c2ccccc2F)c1OC (stereo not drawn),inconclusive: 136%,–
CCNc1oc(-c2ccccc2F)nc1S(=O)(=O)c1ccccc1,inconclusive: 21.8%,–
Cc1nn(C)cc1C(C(=O)NC1CCCCC1)N(C(=O)Cc1cccs1)c1ccc(F)cc1 (stereo not drawn),inconclusive: -19.8%,–

# Remaining list, next part.

SMILES,"lipid storage change, negative = inhibition",Potency
COc1ccc(-c2noc(CNS(=O)(=O)c3ccccc3)n2)cc1,inconclusive: 21.4%,–
CCOC(=O)C1CCN(C2CCN(Cc3nc(-c4ccccc4)no3)CC2)CC1,–,"inconclusive: 32.6 µM [falling, partial curve]"
COc1ccc(CNC(=O)c2cc(SC)ccc2Cl)cc1OC,inconclusive: 9.8% [at 9.22 µM],–
Cn1cnnc1SCC(=O)NCCc1ccccc1,inconclusive: -37.7%,–
COC(=O)c1ccc(-c2ccc(/C=N/N3C(=O)C4C5C=CC(C6CC56)C4C3=O)o2)cc1 (stereo not drawn),–,active: 20.6 µM
COc1cc(C(C(=O)NCC2CCCO2)N(C(=O)Cn2nnc3ccccc32)c2ccc(C(C)=O)cc2)ccc1O (stereo not drawn),inconclusive: 14.3%,–
COc1ccccc1OCc1nnc(SCC(N)=O)n1-c1ccccc1,–,"inconclusive: 14.6 µM [activator, single point]"
COCCCN1C(=O)c2ccc(C(=O)N3CCN(c4ccccc4OC)CC3)cc2C1=O,–,"inconclusive: 18.4 µM [activator, single point]"
Cc1ccc(-n2c(C)nnc2SCC(=O)N(C)c2c(N)n(Cc3ccccc3)c(=O)[nH]c2=O)cc1,inconclusive: 4.15%,–
COc1ccc(-n2c(SCC(=O)NC3CC3)nc3ccccc3c2=O)cc1OC,inconclusive: -23.9%,–
CCNC(=O)Nn1c(-c2ccccc2)nc2ccccc2c1=O,inconclusive: -41.3%,–
O=C1N=C(N2CCN(c3ccccc3)CC2)S/C1=C\c1cn[nH]c1-c1ccccc1,–,"inconclusive: 1.3 µM [activator, partial curve]"
CCc1ccccc1NC(=O)c1cc(-c2ccco2)on1,inconclusive: 92%,–
O=C(CCN1CCc2ccccc21)c1ccc2c(c1)OCCO2,inconclusive: 11.9%,–
COc1ccc(/C=C/C(=O)OCC(=O)NCCNC(=O)COC(=O)/C=C/c2ccc(OC)cc2)cc1,–,"inconclusive: 6.51 µM [falling, partial curve]"
CCOC(=O)c1c(CN2CCN(CCO)CC2)n(C)c2cc(Br)c(OC)cc12,–,"inconclusive: 18.4 µM [falling, single point]"
CCOC(=O)Cc1cc(=O)n2[nH]c(C)c(-c3ccccc3)c2n1,–,"inconclusive: 0.731 µM [activator, single point]"
COc1ccccc1NS(=O)(=O)c1cc(NC(=O)C(C)NC(N)=O)ccc1N1CCCC1 (stereo not drawn),inconclusive: 15.7%,–
O=C(NCc1ccc(F)cc1)c1cc(S(=O)(=O)N2CCCCC2)c[nH]1,inconclusive: -40.6%,–
O=C(c1ccccc1/S(=N/S(=O)(=O)c1ccccc1)N1CCOCC1)N1CCOCC1 (stereo not drawn),inconclusive: -102%,–
O=C(CCC1CCCNC1)c1ccccc1 (stereo not drawn),inconclusive: 38.8%,–
COC(=O)Cc1c(C)nc2nc(Cc3ccccc3)[nH]n2c1=O,inconclusive: -8.09%,–
O=C(N/N=C/c1c(O)ccc2ccccc12)c1cccnc1,–,"inconclusive: 6.51 µM [falling, single point]"
Cc1cccc(N(CC(=O)NCCc2ccccc2)C(=O)c2csnn2)c1,inconclusive: -42%,–
C=CCNC(=O)CSc1nc2sccc2c(=O)n1-c1ccccc1,–,"inconclusive: 1.3 µM [activator, full curve]"
COc1ccccc1CNC(=O)c1ccc2c(=O)n3c(nc2c1)CCCCC3,inconclusive: -39.6%,–
